Article PMC10943099
These are yes or no findings as the source states them, for the method shown. Binding seen in cells or lysates may run through a third protein. Some results given as binding are weak or reduced against the parent protein; the word gives no strength. Blank lines part the entries; values can stand above or below the molecule they belong to.

Chains of the proteins cited; added tags and fusions are not shown.
UniProt O75175: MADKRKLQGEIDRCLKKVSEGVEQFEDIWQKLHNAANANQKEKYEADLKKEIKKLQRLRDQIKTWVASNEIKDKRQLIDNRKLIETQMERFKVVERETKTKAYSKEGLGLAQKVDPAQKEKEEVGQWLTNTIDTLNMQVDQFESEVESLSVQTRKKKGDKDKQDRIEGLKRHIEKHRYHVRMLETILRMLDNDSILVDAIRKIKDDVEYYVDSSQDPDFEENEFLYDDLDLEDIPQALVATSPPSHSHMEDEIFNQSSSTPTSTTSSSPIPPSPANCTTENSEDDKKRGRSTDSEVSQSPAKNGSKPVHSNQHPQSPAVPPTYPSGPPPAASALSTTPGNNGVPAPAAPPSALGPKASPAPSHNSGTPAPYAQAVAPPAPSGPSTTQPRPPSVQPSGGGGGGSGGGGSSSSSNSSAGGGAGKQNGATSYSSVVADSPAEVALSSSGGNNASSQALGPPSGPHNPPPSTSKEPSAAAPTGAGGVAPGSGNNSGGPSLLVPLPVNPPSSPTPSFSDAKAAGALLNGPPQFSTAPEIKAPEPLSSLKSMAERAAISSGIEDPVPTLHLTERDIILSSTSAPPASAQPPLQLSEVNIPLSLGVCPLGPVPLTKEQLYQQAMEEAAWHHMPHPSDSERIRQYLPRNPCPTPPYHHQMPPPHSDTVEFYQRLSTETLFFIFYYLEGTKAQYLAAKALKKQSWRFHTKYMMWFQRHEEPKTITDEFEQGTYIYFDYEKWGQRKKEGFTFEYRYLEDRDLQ
UniProt P29692: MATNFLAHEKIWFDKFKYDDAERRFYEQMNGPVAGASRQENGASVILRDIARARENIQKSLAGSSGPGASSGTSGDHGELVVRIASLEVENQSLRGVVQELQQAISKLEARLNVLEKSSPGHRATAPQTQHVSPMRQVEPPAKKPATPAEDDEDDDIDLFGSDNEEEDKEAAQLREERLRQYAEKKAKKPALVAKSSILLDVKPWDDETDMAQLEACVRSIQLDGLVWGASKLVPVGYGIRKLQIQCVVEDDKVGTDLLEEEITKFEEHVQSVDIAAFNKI

Legend:
[1] = biological target: CNOT3, subunit of the CCR4-NOT complex (endogenous) (human (endogenous in MOLM13)) (UniProt O75175); assay: proximity ligation; Duolink in situ PLA on fixed MOLM13 cells with antibodies against endogenous CNOT3 and EEF1E or EEF1D; control (scramble) shRNA vs. CNOT3-depleted KD-33 and KD-37 cells
[2] = biological target: full-length CNOT3 (exogenous, detected with Flag antibody) (human) (UniProt O75175); assay: proximity ligation; PLA on MOLM13 lines overexpressing CNOT3-FL, NOT box truncated CNOT3 or empty vector, Flag antibody to detect exogenous CNOT3 and antibodies against EEF1E and EEF1D

- binding [1]: binds
- binding [2]: binds
Molecule: EEF1D (endogenous) (from UniProt P29692 1-281)

- binding [1]: binds
- binding [2]: binds
B1: EEF1E, the auxiliary component of the multi-synthetase complex (endogenous) (protein, UniProt O43324 1-174)
chain: MAAAAELSLLEKSLGLSKGNKYSAQGERQIPVLQTNNGPSLTGLTTIAAHLVKQANKEYLLGSTAEEKAIVQQWLEYRVTQVDGHSSKNDIHTLLKDLNSYLEDKVYLTGYNFTLADILLYYGLHRFIVDLTVQEKEKYLNVSRWFCHIQHYPGIRQHLSSVVFIKNRLYTNSH
